Assay results from PubChem BioAssay AID214 (DTP/NCI, 2004).
The list does not hold the whole screen: it is rich in T/C values a quarter to a half above the control, in often repeated tests (any T/C) and in doses without a T/C. Other doses and runs of a compound stand elsewhere. T/C is the treated group as % of the vehicle group. Schedules are NCI's codes, taken here to give the interval after Q, in days (D) or hours (H), and the number of doses after X. Some T/C values carry the count of animals alive at the toxicity check (mostly the fifth day); where none is given, no animal had died by that day. Some entries were tested several times; their values stand side by side, smallest first. Brackets with × give the number of equal values in this list. Some doses have a count of surviving animals in place of a T/C: the source files T/C as zero there, which appears to mark a toxic dose or a test without result, not a measured value. Counts of survivors are from the toxicity check (mostly the fifth day) where no day follows; animals may have died later.

Test system: B6C3F1 mice, colon carcinoma 38 s.c., T/C
Assay: NCI In Vivo Anticancer Drug Screen. Data for tumor model Colon Carcinoma 38 (subcutaneous) in B6C3F1 mice
Details: T/C endpoint: median tumor weight (est.), higher T/C = larger tumour; for T/C: evaluated on day 20
Procedure: The antitumor activity of compounds was measured in mice bearing transplantable tumors. Survival or tumor size were measured and the results are expressed as the measurement made in the treated group (T) divided by the measurement made in the vehicle treated control group (C). The tumor model used in this assay is Colon Carcinoma 38 (subcutaneous) in B6C3F1 mice

[1] = dose: 200.0 mg/kg/injection, schedule: Q07DX002 (ip), vehicle: saline
[2] = dose: 400.0 mg/kg/injection, schedule: Q07DX002 (ip), vehicle: saline
[3] = dose: 32.0 mg/kg/injection, schedule: Q07DX002 (ip), vehicle: saline with Tween-80
[4] = dose: 64.0 mg/kg/injection, schedule: Q07DX002 (ip), vehicle: saline with Tween-80
[5] = dose: 50.0 mg/kg/injection, schedule: Q07DX002 (ip), vehicle: saline with Tween-80
[6] = dose: 100.0 mg/kg/injection, schedule: Q07DX002 (ip), vehicle: saline with Tween-80
[7] = dose: 400.0 mg/kg/injection, schedule: Q07DX002 (ip), vehicle: saline with Tween-80
[8] = dose: 800.0 mg/kg/injection, schedule: Q07DX002 (ip), vehicle: saline with Tween-80
[9] = dose: 40.0 mg/kg/injection, schedule: Q07DX002 (ip), vehicle: sodium bicarbonate
[10] = dose: 60.0 mg/kg/injection, schedule: Q07DX002 (ip), vehicle: sodium bicarbonate
[11] = dose: 90.0 mg/kg/injection, schedule: Q07DX002 (ip), vehicle: sodium bicarbonate
[12] = dose: 135.0 mg/kg/injection, schedule: Q07DX002 (ip), vehicle: sodium bicarbonate

COC(=O)Nc1nc2ccc(SC)cc2c(=O)[nH]1
T/C (dose: 100.0 mg/kg/injection, schedule: Q07DX002 (ip), vehicle: Klucel (hydroxypropylcellulose) (HPC)): 132 % of control
survivor count (dose: 800.0 mg/kg/injection, schedule: Q07DX002 (ip), vehicle: Klucel (hydroxypropylcellulose) (HPC)): 4 of 10 on day 20

CCC(C(=O)O)C(=O)O.[NH2-].[NH2-].[Pt+2]
survivor count [1]: 0 of 10 on day 20 and 4 of 10 on day 20
survivor count (dose: 200.0 mg/kg/injection, schedule: Q07DX002 (ip), vehicle: suspension in saline): 2 of 10 on day 20
survivor count [2]: 0 of 10 on day 20 and 1 of 10 on day 20
survivor count (dose: 400.0 mg/kg/injection, schedule: Q07DX002 (ip), vehicle: suspension in saline): 0 of 10 on day 20

S=P(N1CC1)(N1CC1)N1CC1
survivor count (dose: 24.0 mg/kg/injection, schedule: Q07DX003 (ip), vehicle: saline): 1 of 10 on day 20

CCC/C=C/C=C/C(=O)OC1/C(=C/C(=O)OC)CC2CC(C(C)O)OC(=O)CC(O)CC3CC(OC(C)=O)C(C)(C)C(O)(CC4C/C(=C/C(=O)OC)CC(/C=C/C(C)(C)C1(O)O2)O4)O3 (stereo unspecified)
T/C (dose: 75.0 micrograms/kg/injection, schedule: Q07DX002 (ip), vehicle: saline + alcohol): 127 % of control
T/C (dose: 150.0 micrograms/kg/injection, schedule: Q07DX002 (ip), vehicle: saline + alcohol): 136 % of control [9 of 10 alive on day 20]
survivor count (dose: 600.0 micrograms/kg/injection, schedule: Q07DX002 (ip), vehicle: saline + alcohol): 0 of 10 on day 20

O=C1N[C@@H]2C(=C[C@H](O)[C@@H](O)[C@H]2O)c2cc3c(c(O)c21)OCO3
T/C (dose: 2.5 mg/kg/injection, schedule: Q07DX002 (ip), vehicle: saline with Tween-80): 125 % of control

CCCCCCCCCCCCCCCCCCOCC(COP(=O)([O-])OCC[N+](C)(C)C)OC (stereo unspecified)
survivor count [1]: 0 of 10 on day 20

CC1CCC(NC(=O)N(CCCl)N=O)CC1 (stereo unspecified)
T/C (dose: 4.0 mg/kg/injection, schedule: Q07DX002 (ip), vehicle: saline with Tween-80): 76, 81, 84, 91 (2×), 100, 108, 129, 139 % of control
T/C (dose: 8.0 mg/kg/injection, schedule: Q07DX002 (ip), vehicle: saline with Tween-80): 61, 67 [9 of 10 alive on day 20], 78, 89, 97, 103 [9 of 10 alive on day 20], 116, 121, 227 % of control
T/C (dose: 16.0 mg/kg/injection, schedule: Q07DX002 (ip), vehicle: saline with Tween-80): 18, 20, 40, 54, 64, 70, 73, 81, 145 % of control
T/C [3]: 7, 12, 13, 21, 33, 63 (2×), 129 % of control
survivor count [3]: 4 of 10 on day 20
survivor count (dose: 64.0 mg/kg/injection, schedule: Q07DX002 (ip), vehicle: Klucel (hydroxypropylcellulose) (HPC)): 2 of 10 on day 20
T/C [4]: 28 [9 of 10 alive on day 20] and 42 % of control [8 of 10 alive on day 20]
survivor count [4]: 0 of 10 on day 20, 1 of 10 on day 20, 2 of 10 on day 20, 4 of 10 on day 20, 5 of 10 on day 20, 6 of 10 on day 20

NC(=O)C1=CC2C3C=CC2(O)C(=O)OC3O1 (stereo unspecified)
survivor count (dose: 60.0 mg/kg/injection, schedule: Q07DX002 (ip), vehicle: Klucel (hydroxypropylcellulose) (HPC)): 2 of 10 on day 20
survivor count (dose: 120.0 mg/kg/injection, schedule: Q07DX002 (ip), vehicle: Klucel (hydroxypropylcellulose) (HPC)): 0 of 10 on day 20

CC1(C)OCC2OC=CC(=O)C2O1 (stereo unspecified)
T/C [5]: 147 % of control
T/C [6]: 126 % of control
T/C [7]: 140 % of control
T/C [8]: 147 % of control [9 of 10 alive on day 20]

COc1cc2c[n+](C)c3c(c2cc1OC)Cc1cc2c(cc1-3)OCO2
survivor count [8]: 0 of 10 on day 20

CN(Cc1cnc2nc(N)nc(N)c2n1)c1ccc(C(=O)N[C@@H](CCC(=O)O)C(=O)O)cc1
T/C (dose: 26.0 mg/kg/injection, schedule: Q07DX002 (ip), vehicle: sodium bicarbonate): 20 [9 of 10 alive on day 20], 68 [7 of 10 alive on day 20], 81, 83, 87 [9 of 10 alive on day 20], 96, 96 [8 of 10 alive on day 20], 105, 124, 126, 177 % of control
T/C [9]: 44 [9 of 10 alive on day 20], 72 [9 of 10 alive on day 20], 91, 94 [9 of 10 alive on day 20], 111, 123, 124 % of control
survivor count [9]: 2 of 10 on day 20, 4 of 10 on day 20, 5 of 10 on day 20
T/C [10]: 53 [9 of 10 alive on day 20], 65 [9 of 10 alive on day 20], 86, 92, 101 % of control [8 of 10 alive on day 20]
survivor count [10]: 0 of 10 on day 20, 2 of 10 on day 20, 3 of 10 on day 20, 6 of 10 on day 20
T/C [11]: 81, 90, 100, 105 % of control
survivor count [11]: 0 of 10 on day 20, 2 of 9 on day 20, 3 of 10 on day 20, 6 of 10 on day 20
T/C [12]: 17, 47, 76, 90 % of control [7 of 10 alive on day 20]
survivor count [12]: 0 of 10 on day 20, 0 of 9 on day 20, 3 of 10 on day 20

NC(=O)c1ccc[n+](Cc2c(Cl)cccc2Cl)c1
survivor count (dose: 100.0 mg/kg/injection, schedule: Q07DX002 (ip), vehicle: saline): 4 of 10 on day 20
survivor count [1]: 0 of 10 on day 20
survivor count [2]: 4 of 10 on day 20

ClCc1ccc2ccccc2n1
survivor count [7]: 0 of 10 on day 20
survivor count [8]: 0 of 10 on day 20

O=C(O)C(O)C(O)C1[O][Sb][O]C1C(=O)O (stereo unspecified)
survivor count [1]: 0 of 10 on day 20

C=C1COC(O)(C2OCOC(C3CC(=O)NC(=O)C3)C2O)C1C (stereo unspecified)
T/C (dose: 62.5 micrograms/kg/injection, schedule: Q07DX002 (ip), vehicle: water): 140 % of control
survivor count (dose: 125.0 micrograms/kg/injection, schedule: Q07DX002 (ip), vehicle: water): 4 of 10 on day 20
survivor count (dose: 250.0 micrograms/kg/injection, schedule: Q07DX002 (ip), vehicle: water): 0 of 10 on day 20

CCC1=C2C(=O)c3ccccc3C2=C(C)S(=O)(=O)O1
T/C (dose: 12.5 mg/kg/injection, schedule: Q07DX002 (ip), vehicle: saline with Tween-80): 145 % of control
T/C (dose: 25.0 mg/kg/injection, schedule: Q07DX002 (ip), vehicle: saline with Tween-80): 136 % of control [9 of 10 alive on day 20]
T/C [5]: 130 % of control
survivor count [6]: 5 of 10 on day 20
survivor count (dose: 200.0 mg/kg/injection, schedule: Q07DX002 (ip), vehicle: saline with Tween-80): 0 of 10 on day 20

Oc1cc2ccccc2c(-c2c(O)c(O)cc3ccccc23)c1O
survivor count (dose: 1600.0 mg/kg/injection, schedule: Q07DX002 (ip), vehicle: saline with Tween-80): 0 of 10 on day 20
